# The campaign covered roughly 400,000 compounds. About 13,000 (3.2%) were called active. The shares of active, inactive and inconclusive entries below differ from those in the screen. The call rests on the fitted dose curve; in most records, active means well fitted cell-killing curve with a large enough effect; inconclusive means small, poorly fitted or top-dose-only effect, or effect the other way; inactive means flat fitted curve, though single readings scatter. Where the call is inconclusive, the potency comes from a doubtful curve fit.
# Experiment: qHTS assay for MDR1-selective chemotherapeutics: Primary screen using the drug-selected MDR subline cells KB-V1; further: nearly all actives have a fitted effect of over 60% in size
# Conditions: KB-V1 MDR cells viability, CellTiter-Glo, 72 h; activity change, negative = cytotoxicity: at 46.1 µM (top of the series)
# In short: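 Potencies derive from concentration-effect curves fitted to normalized luminescence (CellTiter-Glo) of KB-V1 cells treated for 72 h at 37 degrees C in phenol-red-free DMEM containing 10% FBS.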
# On the % scale 0 is the no-effect control and ±100 the full control effect; potency means the concentration at half of the fitted maximal effect.
Compound,Potency,"activity change, negative = cytotoxicity"
CCOCc1c(C(=O)NC2=Nc3ccccc3NC(CC)=C2C(=O)OCC)oc2ccccc12,"inconclusive: 10.3 µM [cytotoxic, partial curve, poor fit]",–
CCOC(=O)c1c(C)[nH]c(C)c1C(=O)COC(=O)c1ccccc1O,"inconclusive: 16.4 µM [cytotoxic, single point]",–
COCCN(C(=O)CSc1nnc(-c2ccccc2C)n1C)c1c(N)n(Cc2ccccc2)c(=O)[nH]c1=O,–,inactive: 8.46%
OC(CNCCc1ccccc1)COc1ccc(OCC(O)CNCCc2ccccc2)cc1 (stereo not given),"inconclusive: 25.9 µM [cytotoxic, partial curve, poor fit]",–
CCN(CC(=O)NCc1cccs1)C(=O)CCOc1ccccc1,–,inactive: -3.05%
COc1ccc(C2c3c(ncn(CCCO)c3=N)Oc3ccc4ccccc4c32)cc1 (stereo not given),–,inactive: -8.8%
CC(C)NC(=O)C1CCN(C(=O)c2cc3sccc3n2Cc2ccc(F)cc2)CC1,active: 6.51 µM,–
NCCCCc1cn(CC(=O)N2CCNCC2)nn1,–,inconclusive: -18.2%
CCOC(=O)N1CCN(C(=O)COC(=O)C2CCN(S(=O)(=O)c3c(C)c(C)cc(C)c3C)CC2)CC1,–,inactive: -3.88%
Cc1ccc(C)c(S(=O)(=O)N2CCN(C(=O)CCNS(=O)(=O)c3ccc(C)c(C)c3)CC2)c1,active: 2.91 µM,–
CN(Cc1ccc(F)cc1)C(=O)C(Cc1ccccc1)NC(=O)c1ccccc1 (stereo not given),active: 10.3 µM,–
COc1ccc([C@H]2CN(c3ccc(OC)cc3)C(=O)[C@@H]2CC(=O)Nc2ccc(Br)cc2)cc1,active: 16.4 µM,–
CCOc1ccc(S(=O)(=O)N2CCC(C(=O)N3CCCCCC3)CC2)cc1Cl,"inconclusive: 20.6 µM [cytotoxic, single point]",–
CC(Sc1nc(-c2ccccc2)cc(C(F)(F)F)n1)C(=O)NCCN1CCOCC1 (stereo not given),"inconclusive: 9.2 µM [cytotoxic, partial curve]",–
S=c1[nH]nc(-c2ccn[nH]2)n1-c1ccccc1Cl,"inconclusive: 14.6 µM [rising, partial curve, poor fit]",–
N#CC1=C(SCC(=O)Nc2ccccc2)NC(=O)CC1c1ccco1 (stereo not given),active: 14.6 µM,–
COc1ccc(/C=N/NC(=O)CNc2n[nH]c(=O)[nH]c2=O)cc1OC,"inconclusive: 11.6 µM [rising, partial curve]",–
CCCCOc1ccc(C(=O)NCC(=O)NCC(c2ccc(OC)cc2)N2CCCC2)cc1 (stereo not given),–,inactive: -2.57%
O=C(CC1SC(N2CCCCC2)=NC1=O)Nc1cccc(C(=O)NCc2ccccc2)c1 (stereo not given),"inconclusive: 13 µM [rising, single point]",–
COC(=O)[C@]1(C)N[C@H](CN(C)C(C)=O)[C@@H]2C(=O)N(Cc3ccccc3)C(=O)[C@@H]21,"inconclusive: 9.2 µM [rising, partial curve]",–
CCC(=O)c1ccc(N2CCN(C(=O)c3cccc(F)c3)CC2)c(F)c1,"inconclusive: 20.6 µM [cytotoxic, single point]",–
COc1ccc(C2CC(c3ccc4ccccc4c3)=NN2C(=O)CSc2ncccn2)cc1 (stereo not given),"inconclusive: 10.3 µM [cytotoxic, partial curve]",–
CCOc1ccc(C(=O)OCC(=O)N(Cc2ccccc2)Cc2ccccc2)cc1OC,active: 23.1 µM,–
COC(=O)CSc1nc(C)cc(Oc2ccccc2)n1,"inconclusive: 29.1 µM [rising, single point]",–

# A portion taken from the entries so far:
Compound,Potency,"activity change, negative = cytotoxicity"
CN(Cc1ccc(F)cc1)C(=O)C(Cc1ccccc1)NC(=O)c1ccccc1 (stereo not given),active: 10.3 µM,–
COc1ccc([C@H]2CN(c3ccc(OC)cc3)C(=O)[C@@H]2CC(=O)Nc2ccc(Br)cc2)cc1,active: 16.4 µM,–

# (more compounds)

Compound,Potency,"activity change, negative = cytotoxicity"
COc1ccc(CCc2nnc(CCC(=O)NCC3CCCO3)o2)cc1 (stereo not given),–,inactive: 14.9%
COc1cc(C(c2sc3nc(C)nn3c2O)N2CCC3(CC2)OCCO3)cc(OC)c1OC (stereo not given),"inconclusive: 0.651 µM [rising, full curve, poor fit]",–
CCOC(=O)[C@]12CCCC=C1N(Cc1ccc(Cl)cc1Cl)C(=O)[C@H](CC(=O)N1CCCCC1)C2,"inconclusive: 4.11 µM [cytotoxic, partial curve]",–
CCn1c(SCC(=O)Nc2ccc(OC)c(OC)c2)nc2c(c1=O)SCC2,"inconclusive: 20.6 µM [cytotoxic, single point]",–
Cc1cccn2cc(CNc3ccccc3)nc12,–,inconclusive: -46.5%
C=CCNC(=O)C1CCN(c2ccc(S(=O)(=O)N3CCOCC3)cc2Cl)CC1,"inconclusive: 29.1 µM [cytotoxic, single point]",–
COc1cccc(CNC(=O)CCCCCn2c(=O)[nH]c3cc(OC)c(OC)cc3c2=O)c1,–,inactive: -3.36%
COc1ccc(C(=O)NC(=S)NCc2ccco2)cc1OC,–,inactive: -21.3%
COc1cccc(C2CC(=O)Nc3n[nH]c(-c4ccccc4)c32)c1OC (stereo not given),–,inactive: 0%
Cc1ccc(C(=O)NC(=S)Nc2cccc(NC(=O)c3ccccc3Cl)c2)cc1[N+](=O)[O-],–,inactive: 26%
CC1=CC(=NOC(=O)c2cccc([N+](=O)[O-])c2)C=C(C)C1=O,–,inactive: 3.76%
CCOC(=O)C1CCN(C(=O)COC(=O)COc2ccc(Cl)cc2)CC1,–,inactive: 14.1%
COc1ccccc1NC(=O)CN1CCN(CC(=O)Nc2ccc3c(c2)OCO3)CC1,"inconclusive: 14.6 µM [cytotoxic, partial curve]",–
CCCCN(C(=O)c1ccc(OC(F)(F)F)cc1)c1c(N)n(CCC)c(=O)[nH]c1=O,"inconclusive: 14.6 µM [rising, partial curve]",–
COc1cc(C(CC(=O)Nc2cc(C)ccn2)N2Cc3ccccc3C2=O)cc(OC)c1OC (stereo not given),"inconclusive: 20.6 µM [rising, single point]",–
COc1nsnc1NS(=O)(=O)c1ccc(NC(=S)NC(=O)c2ccncc2)cc1,"inconclusive: 23.1 µM [cytotoxic, partial curve, poor fit]",–
CN(CC(=O)Nc1ccc(F)cc1)C(=O)c1ccc(N2C(=O)CCC2=O)cc1,"inconclusive: 29.1 µM [rising, single point]",–
NS(=O)(=O)c1ccc(CCNC(=O)c2ccc3c(c2)OCO3)cc1,"inconclusive: 29.1 µM [rising, single point]",–
Nc1c(C(=O)Nc2ccccc2)c2nc3ccccc3nc2n1-c1ccc(O)cc1,–,inactive: 1.39%
CN1CCN(C(=O)NC2CCCCC2)CC1,–,inactive: 14.2%
Cc1ccc(N2C(=O)CC(Sc3nc(-c4ccccc4)c4cc(Cl)ccc4n3)C2=O)c(C)c1 (stereo not given),"inconclusive: 2.59 µM [cytotoxic, full curve]",–
Cc1ccc(S(=O)(=O)N2CCN(C(=O)COC(=O)CNC(=O)c3ccc(C(C)(C)C)cc3)CC2)c(C)c1,"inconclusive: 29.1 µM [rising, single point]",–
CS(=O)(=O)N(CCc1ccccc1)CC(=O)N1CCN(Cc2ccc3c(c2)OCO3)CC1,"inconclusive: 25.9 µM [cytotoxic, partial curve, poor fit]",–
Cc1cc(S(=O)(=O)N2CCN(C(=O)c3ccco3)CC2)ccc1F,"inconclusive: 29.1 µM [cytotoxic, single point]",–

# Laid out differently: entries from further up
Compound	Potency	activity change, negative = cytotoxicity
CN(CC(=O)Nc1ccc(F)cc1)C(=O)c1ccc(N2C(=O)CCC2=O)cc1	inconclusive: 29.1 µM [rising, single point]	–
Cc1ccc(S(=O)(=O)N2CCN(C(=O)COC(=O)CNC(=O)c3ccc(C(C)(C)C)cc3)CC2)c(C)c1	inconclusive: 29.1 µM [rising, single point]	–

# (next part)

Compound,Potency,"activity change, negative = cytotoxicity"
Cc1cc(-c2ccc(N3CCOCC3)cc2)nc2ccccc12,–,inactive: 0%
COc1ccccc1NC(=O)CSc1oc(-c2ccccc2)nc1S(=O)(=O)c1ccccc1,–,inactive: -10.9%
CC(=O)OC1CCC2C3CCc4cc(O)ccc4C3CCC12C (stereo not given),active: 18.4 µM,–
NC(=O)c1ccc(NC(=O)CCc2nc3ccccc3s2)cc1,"inconclusive: 29.1 µM [rising, partial curve, poor fit]",–
COc1cc(-c2oc3ccc(C)cc3c(=O)c2O)cc(OC)c1OC,active: 23.1 µM,–
Cn1cnnc1SC1c2cccc3cccc(c23)C1NS(=O)(=O)c1ccc(Cl)cc1 (stereo not given),active: 11.6 µM,–
CCN(CC)S(=O)(=O)c1cc(NC(=O)c2cc([N+](=O)[O-])ccc2N2CCOCC2)ccc1C,"inconclusive: 4.11 µM [cytotoxic, full curve]",–
CCN1C(=O)N(CC)c2cccc3cccc1c23,"inconclusive: 29.1 µM [cytotoxic, partial curve, poor fit]",–
COc1ccc(-c2noc(CCC(=O)Nc3cc(OC)ccc3OC)n2)cc1,–,inactive: -7.81%
CC1=C(CC(=O)c2ccccc2)C(=O)c2ccccc2C1=O,active: 10.3 µM,–
Cc1nc2ncccn2c1-c1csc(Nc2ccc(S(N)(=O)=O)cc2)n1,–,inactive: -3.73%
CCc1ccc(NC(=O)Cn2nnc(-c3ccc(C)cc3-n3cnnn3)n2)cc1,"inconclusive: 11.6 µM [cytotoxic, partial curve]",–
Cc1ccc(C(=S)N2CCN(Cc3ccccc3)CC2)cc1,"inconclusive: 29.1 µM [cytotoxic, single point]",–
Cc1ccc(S(=O)(=O)N2C[C@]3(O)C[C@@H]4C(=O)N(c5ccccc5)C(=O)[C@@H]4C[C@]3(OC(=O)Nc3cccs3)C2)cc1,–,inactive: 11%
Cc1ccc(S(=O)(=O)Nc2c(C)nn(C)c2C)cc1C,"inconclusive: 13 µM [cytotoxic, partial curve]",–
CCCc1nc(SCC(=O)N2CCC(Cc3ccccc3)CC2)c2c(=O)n(C)c(=O)n(C)c2n1,–,inactive: -4.92%
Cc1ccc(N(Cc2ccccc2F)S(C)(=O)=O)cc1C,"inconclusive: 23.1 µM [cytotoxic, single point]",–
S=c1[nH]nc(-c2ccccc2)o1,"inconclusive: 20.6 µM [rising, single point]",–
O=C(COc1ccc(Cl)cc1)N(Cc1ccc(F)cc1)C1CCS(=O)(=O)C1 (stereo not given),"inconclusive: 9.2 µM [cytotoxic, partial curve]",–
COc1ccccc1CNC(=O)/C(C#N)=C/c1ccc(OC)c(OC)c1OC,–,inactive: -9.2%
COC(=O)C(C)Sc1nnc(Cc2cc(=O)[nH]c(=O)[nH]2)n1-c1cc(C)ccc1C (stereo not given),"inconclusive: 20.6 µM [rising, single point]",–
Cc1nc(-c2ccc(S(=O)(=O)N3CCN(Cc4ccccc4)CC3)s2)cs1,"inconclusive: 18.4 µM [cytotoxic, partial curve, poor fit]",–
